Drawing on PMC13065327, this text covers binding for 2 molecules.

For the test, the target named is T1, Dsn1-6His-3FLAG (S. cerevisiae), P40568.
T1 chain: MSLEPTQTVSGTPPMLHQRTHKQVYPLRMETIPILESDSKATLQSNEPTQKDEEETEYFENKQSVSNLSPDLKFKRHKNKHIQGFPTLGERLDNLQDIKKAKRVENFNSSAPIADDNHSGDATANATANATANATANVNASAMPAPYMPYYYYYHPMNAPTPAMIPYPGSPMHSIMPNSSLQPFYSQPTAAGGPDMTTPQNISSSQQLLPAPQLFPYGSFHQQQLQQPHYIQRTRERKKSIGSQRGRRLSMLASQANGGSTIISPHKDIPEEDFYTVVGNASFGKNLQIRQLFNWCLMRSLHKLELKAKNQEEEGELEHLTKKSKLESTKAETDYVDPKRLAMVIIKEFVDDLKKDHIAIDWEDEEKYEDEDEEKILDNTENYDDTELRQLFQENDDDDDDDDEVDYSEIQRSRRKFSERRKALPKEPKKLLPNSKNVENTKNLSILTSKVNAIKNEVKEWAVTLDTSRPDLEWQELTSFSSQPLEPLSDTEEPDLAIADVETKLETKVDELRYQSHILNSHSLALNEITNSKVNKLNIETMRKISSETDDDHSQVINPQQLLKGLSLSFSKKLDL
Briefly: affinity purification with mass spectrometry; anti-FLAG antibody on Protein G Dynabeads, Dsn1-6His-3FLAG from lysates of SK1 cells at mitotic metaphase, meiotic prophase, metaphase I and metaphase II (SynSAC, 250 uM ABA); BH0.15 buffer (150 mM KCl, 25 mM HEPES-KOH pH 8.0, 2 mM MgCl2, 0.1% NP-40), 3 hr at 4 C; DIA-MS of eluates, 95% phospho-enriched; no tag control. As to conditions: remark: other sources report otherwise.

Results are given in words; binding and its absence hold for the method and conditions named. Binding seen in cells or lysates may run through a third protein. These calls come from enrichment with a bait or labelling near it, and not all partners need be listed. Where a sequence is shown, tags or fusion partners need not be part of it.

B1: Ipl1, P38991 1-367 (enzyme)
chain: MQRNSLVNIKLNANSPSKKTTTRPNTSRINKPWRISHSPQQRNPNSKIPSPVREKLNRLPVNNKKFLDMESSKIPSPIRKATSSKMIHENKKLPKFKSLSLDDFELGKKLGKGKFGKVYCVRHRSTGYICALKVMEKEEIIKYNLQKQFRREVEIQTSLNHPNLTKSYGYFHDEKRVYLLMEYLVNGEMYKLLRLHGPFNDILASDYIYQIANALDYMHKKNIIHRDIKPENILIGFNNVIKLTDFGWSIINPPENRRKTVCGTIDYLSPEMVESREYDHTIDAWALGVLAFELLTGAPPFEEEMKDTTYKRIAALDIKMPSNISQDAQDLILKLLKYDPKDRMRLGDVKMHPWILRNKPFWENKRL
Consider B1, for which the binding result is reported as “binds”.

B2: Glc7, P32598 1-312 (enzyme)
chain: MDSQPVDVDNIIDRLLEVRGSKPGQQVDLEENEIRYLCSKARSIFIKQPILLELEAPIKICGDIHGQYYDLLRLFEYGGFPPESNYLFLGDYVDRGKQSLETICLLLAYKIKYPENFFILRGNHECASINRIYGFYDECKRRYNIKLWKTFTDCFNCLPIAAIIDEKIFCMHGGLSPDLNSMEQIRRVMRPTDIPDVGLLCDLLWSDPDKDIVGWSENDRGVSFTFGPDVVNRFLQKQDMELICRAHQVVEDGYEFFSKRQLVTLFSAPNYCGEFDNAGAMMSVDESLLCSFQILKPAQKSLPRQAGGRKKK
On to B2, for which the binding result is “binds”.
